For at least one compound, name, drawing or mass did not settle the structure.
Target: T1, CB2 receptor (Homo sapiens, UniProt P34972)
T1 construct: expressed in transfected cells; host or cells: CHO cells, G418-selected transfected line
Test: CB2 binding procedure: displacement of [3H]CP-55,940 from membranes of transfected CHO cells
Settings: CB1 Ki divided by CB2 Ki
Experimental: Membranes for CB2 binding were obtained from CHO cells. The transfected cell line was maintained in Dublecco's Modified Eagle Medium (Gibco BRL, Grand Island, N.Y.) with 10% fetal clone II (HyClone Laboratories, Inc., Logan, Utah) plus 0.3 to 0.5 mg/ml G418 (to maintain selective pressure) under 5% CO2 at 37% C. Cells were harvested with 1 mM EDTA in phosphate-buffered saline and were centrifuged at 1000×g for 5 min at 4% C. The supernatant was saved and the P1 pellet was resuspended in centrifugation buffer. Homogenization and centrifugation were repeated twice and the combined supernatant fractions were centrifuged at 40,000×g for 30 min at 4% C. […] Protein concentrations were determined by the method of Bradford (1976) using Bio-Rad Protein Assay (Bio-Rad, Richmond, Calif.) and BSA standards (fatty acid free, Sigma Chemical Co., St. Louis, Mo.). […]
Binding was initiated by the addition of 50 μg of quickly thawed P2 membranes to test tubes containing [^3H]CP-55,940 (final reaction concentration 0.5 nM), an appropriate concentration of unlabeled CP-55,940 or test drug, and sufficient quantity of assay buffer (50 mM Tris-HCl, 1 mM EDTA, 3 mM MgCl2, 5 mg/ml bovine serum albumin, pH 7.4) to bring the total incubation volume to 0.5 ml. […] Nonspecific binding was determined by the addition of 1 μM unlabeled CP-55,940. […]

The chains behind the UniProt entries cited, without tags or fusion partners.
UniProt P34972, whole entry: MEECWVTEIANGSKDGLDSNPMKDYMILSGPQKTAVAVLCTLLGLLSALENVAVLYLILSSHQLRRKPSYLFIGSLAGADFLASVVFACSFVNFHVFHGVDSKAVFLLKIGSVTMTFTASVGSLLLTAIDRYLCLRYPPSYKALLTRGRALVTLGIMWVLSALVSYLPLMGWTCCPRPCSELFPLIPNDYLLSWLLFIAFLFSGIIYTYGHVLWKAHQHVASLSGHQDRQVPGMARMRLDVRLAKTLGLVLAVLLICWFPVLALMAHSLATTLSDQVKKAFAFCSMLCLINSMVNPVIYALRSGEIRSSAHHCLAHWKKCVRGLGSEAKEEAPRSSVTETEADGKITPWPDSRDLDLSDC

`CCCCCCC(C)(C)c1cc(O)c(C2CCCC2)c(O)c1` [O-1424, 2-(Cyclopentyl)-dimethylheptyl-resorcinol] was tested, and the “CB1/CB2 (ratio of Ki)” value was 14.

— patent publication US7179800B2 (priority 2002, dated 2007)
